{"source": "patent US20060246505A1", "about": "“Modulation of the synthesis of insulin” (priority 2003, published 2006)", "origin": "cited, not measured here", "system": "signalling pathways that trigger transcription", "details": "glucose-triggered resynthesis of insulin in beta cells; prior-art statement", "note": "At least one compound was matched to its structure with a doubt left."}
{"smiles": "COC[C@H]1OC(=O)c2coc3c2[C@@]1(C)C1=C(C3=O)[C@@H]2CCC(=O)[C@@]2(C)C[C@H]1OC(C)=O", "note": "[wortmannin]", "values": [{"measurement": "inhibition of the signalling pathways that trigger transcription (resynthesis of insulin)", "value": "can be inhibited"}]}
